# Measurements taken from PubChem BioAssay AID1471 (National Center for Advancing Translational Sciences (NCATS), 2008).
# Among all 230,000 compounds or so, about 310 (0.13%) were called active. The shares of active, inactive and inconclusive entries below differ from those in the screen. Calls follow the shape of the dose curve; as a rule, active = well fitted activation curve with a large enough effect; inconclusive = small, poorly fitted or top-dose-only effect; inactive = no such curve, though single readings can be large or run the other way. Potencies beside an inconclusive call are fits to weak or partial responses and may not hold up.
# Experiment: qHTS Multiplex Assay to Identify Dual Action Probes in a Cell Model of Huntington: Cytoprotection (ATP); also: nearly all actives have a fitted effect of over 45% in size;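 as to cytoprotection (ATP increase): toxic huntingtin expression switched on by the ecdysone agonist tebufenozide; % of control where 0% means no effect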
# Conditions: PC12 HTT-Q103 induced, ATP luminescence, 40 h; cytoprotection (ATP increase): at 56.4 µM (top of the series) unless noted
# Method in brief: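 Compounds were screened for protection of PC12 cells against cell death after tebufenozide induction (100 nM final) of mutant Huntingtin exon 1 (Q103) fused to GFP.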
# Potency is read from the fitted curve at half-maximal effect.
Structure (SMILES),Potency,cytoprotection (ATP increase)
CCN(CC)CCOC(=O)C(c1ccccc1)C1CCCCC1 (centres undefined),"inconclusive: 0.0056 µM [activator, full curve]",–
CC(=O)N1CCN(c2ccc(NCc3cccs3)cc2)CC1,–,inactive: -23.1%
COc1ccccc1C(=O)Nc1ccc(S(=O)(=O)N2CCc3ccccc32)cc1,–,inactive: -15%
N#CC1=C2SCN(c3ccccc3)CN2C(=O)CC1c1cccs1 (centres undefined),–,inactive: -7.4%
CCOc1ccc(Cn2c(O)cc(=O)[nH]c2=O)cc1,–,inactive: -3.8% [at 10 µM]
CC(=O)Oc1cccc(N2C(=O)C3C(C2=O)C2C=CC3C23CC3)c1 (centres undefined),–,inactive: 0.363%
CCN(CC)S(=O)(=O)c1cccc(C(=O)N2CC(O)CC2C(=O)OC)c1 (centres undefined),–,inactive: -1.15%
CC1(C)CC(=O)c2cnc(N)nc2C1,–,inactive: 10.9%
COc1cccc([C@@H]2Oc3ccc(Br)cc3C(=O)[C@H]2OC(=O)N[C@H](C)C2CCCCC2)c1,"inconclusive: 6.31 µM [activator, partial curve, poor fit]",–
O=C(c1ccncc1)N1CCC[C@@]2(CCN(c3ccccn3)C2)C1,"inconclusive: 7.08 µM [activator, full curve, poor fit]",–
COC(=O)CC1COc2ccccc2N1C(=O)c1ccc(C(C)(C)C)cc1 (centres undefined),"inconclusive: 2.82 µM [activator, single point]",–
COc1cc(OC)c(-c2nn3c(-c4cccnc4)nnc3s2)cc1OC,–,inactive: -13.9%
COC(=O)c1cc([N+](=O)[O-])c(-n2cncn2)c([N+](=O)[O-])c1,"inconclusive: 5.62 µM [activator, single point]",–
Cc1ccc(-n2nc(C)c(/C=N/n3c(C)n[nH]c3=S)c2Cl)cc1,"inconclusive: 31.6 µM [activator, single point]",–
COc1ccc(C2C=C(C34CC5CC(CC(C5)C3)C4)NC(=S)N2)cc1 (centres undefined),"inconclusive: 0.562 µM [activator, full curve, poor fit]",–
CCC[C@H]1C(=O)N2C(N(C)C)=Nc3ccc(C)cc3N2C1=O,"inconclusive: 0.0501 µM [activator, full curve, poor fit]",–
O=C1/C(=N/n2cnnc2)c2ccccc2N1Cc1ccccc1,–,inactive: -19.8%
COc1ccc(NC(=S)Nc2ccccc2C(F)(F)F)cc1,"inconclusive: 3.16 µM [activator, single point]",–
C/C(N)=C(/C#N)C(=O)CSc1cc(C)c2ccccc2n1,"inconclusive: 1.78 µM [activator, partial curve, poor fit]",–
COc1ccccc1N1CCN(C(=O)C2CCN(S(=O)(=O)c3ccc(C)cc3)CC2)CC1,"inconclusive: 3.16 µM [activator, single point]",–
NC(N)=NCc1cccc(I)c1,"inconclusive: 35.5 µM [activator, partial curve, poor fit]",–
O=C(c1ccco1)N(CCC(c1ccccc1)c1ccco1)Cc1ccco1 (centres undefined),–,inactive: -10.6%
COc1cc(/C=C/C(=O)O)cc(S(=O)(=O)Nc2ccc3nc(SC)sc3c2)c1OC,–,inactive: -31.4%

Structure (SMILES),Potency,cytoprotection (ATP increase)
O=C(O)CCC(=O)N1N=C(c2c(-c3ccccc3)c3cc(Cl)ccc3[nH]c2=O)CC1c1cccs1 (centres undefined),active: 2.82 µM,–
O=C(Nc1ccccc1)OC[C@H](CN1CCCCC1)OC(=O)Nc1ccccc1,–,inactive: 9.32% [at 40.3 µM]
NS(=O)(=O)c1cccc2c1c([N+](=O)[O-])cc1nc(O)c(O)nc12,"inconclusive: 0.0794 µM [activator, full curve]",–
CCNC(=O)CON=C1c2ccccc2-c2ccccc21,–,inactive: -21.1% [at 10 µM]
COC1(NS(=O)(=O)c2ccc(Br)cc2)C(C)=CC(=O)C=C1C,"inconclusive: 3.16 µM [activator, partial curve]",–
C/C(=N\NC(=O)c1cccc(F)c1)c1cccc(NC(=O)c2ccc(F)cc2)c1,"inconclusive: 0.891 µM [activator, single point]",–
C/C(=N\Nc1nc2c(s1)CCCC2)c1ccc(Cl)cc1,–,inactive: -15.4%
CCOC(=O)c1c(N2C(=O)Nc3ccccc3N2O)n[nH]c1-c1cccc(Cl)c1,"inconclusive: 31.6 µM [activator, single point]",–
C/C(=N\NC(N)=S)C1C2C3CC4C5CC(C42)C1C53 (centres undefined),active: 11.2 µM,–
Cc1[nH]c(=O)c(C#N)cc1-c1ccccc1,–,inactive: -3.3% [at 10 µM]
CCOC(=O)c1sc2nc(C)n(N)c(=O)c2c1C,"inconclusive: 6.31 µM [activator, single point]",–
O=C(NCc1cccs1)C(=O)c1cn(CC(=O)N2CCOCC2)c2ccccc12,"inconclusive: 1.58 µM [activator, partial curve]",–
COc1cc(NC(=O)O[C@@H]2C(=O)c3cc(Br)ccc3O[C@H]2c2ccc3c(c2)OCO3)cc(OC)c1OC,"inconclusive: 15.8 µM [activator, single point]",–
COc1ccccc1CNC(=O)CSc1ccsc1[N+](=O)[O-],"inconclusive: 15.8 µM [activator, single point]",–
CC1(C)Cc2ccccc2C(/C(C#N)=N/O)=N1,"inconclusive: 0.708 µM [activator, partial curve]",–
COc1ccc(CNC(=O)CCn2c(=O)oc3ccccc32)c(OC)c1,–,inactive: -16.2%
CCCCCCCCCCCCC/C=C/[C@@H](O)[C@H](CO)NC(=O)CCCCCCCCCCCCCCC,"inconclusive: 2.82 µM [activator, partial curve]",–
Nc1cc(Cl)c(N)c(Cl)c1,"inconclusive: 1.12 µM [activator, full curve, poor fit]",–
CN1CCC2(CC1)CCN(C(=O)c1cccc(F)c1)CC2,"inconclusive: 15.8 µM [activator, partial curve]",–
COc1ccc2c(c1)C1NC(=S)N[C@@](C)(O2)C1C(=O)Nc1ccccc1 (some centres undefined),"inconclusive: 0.708 µM [activator, partial curve]",–
Cc1c(C(N)=O)cc([N+](=O)[O-])cc1[N+](=O)[O-],"inconclusive: 11.2 µM [activator, single point]",–
Cc1[nH]c2ccccc2c1/C=N\NC(=O)Cn1nnc(-c2ccccc2)n1,"inconclusive: 3.98 µM [activator, partial curve]",–
Cc1cc(C)c2c(c1)cc(C)c1nnc(SCC(=O)Nc3ccc(S(=O)(=O)N4CCCCC4)cc3)n12,–,inactive: 17% [at 10 µM]

# 4 entries drawn at random from the list so far, as already listed:
Structure (SMILES),Potency,cytoprotection (ATP increase)
COc1cc(OC)c(-c2nn3c(-c4cccnc4)nnc3s2)cc1OC,–,inactive: -13.9%
C/C(=N\NC(N)=S)C1C2C3CC4C5CC(C42)C1C53 (centres undefined),active: 11.2 µM,–
C/C(N)=C(/C#N)C(=O)CSc1cc(C)c2ccccc2n1,"inconclusive: 1.78 µM [activator, partial curve, poor fit]",–
COc1cccc([C@@H]2Oc3ccc(Br)cc3C(=O)[C@H]2OC(=O)N[C@H](C)C2CCCCC2)c1,"inconclusive: 6.31 µM [activator, partial curve, poor fit]",–

# (cont.)

Structure (SMILES),Potency,cytoprotection (ATP increase)
Cc1ccc(N(C(=O)CNC(=O)c2ccco2)C(C(=O)NCC2CCCO2)c2ccccc2)cc1 (centres undefined),–,inactive: 28.3%
CC(C)N(Cc1nc(-c2ccccc2)no1)C(=O)Cc1ccccc1,–,inactive: -8.18%
CN(C)c1ccc(-c2cc([C@H]3[C@@H]4C=CCC[C@@]4(C)C(=O)N3Cc3ccccc3)ccc2F)cc1,–,inactive: -6.06% [at 10 µM]
Fc1ccc(NC(=S)N2CCSC2c2cccs2)cc1 (centres undefined),"inconclusive: 14.1 µM [activator, single point]",–
Cc1ccc(-c2ccnc(-c3ccc(O)cc3)n2)cc1,"inconclusive: 3.98 µM [activator, partial curve]",–
CCCCCCC(=O)N(O)C1CC(=O)N(c2ccc(Br)cc2)C1=O (centres undefined),–,inactive: -81.3%
Cc1cc(C(=O)NCCc2ccc(S(=O)(=O)NC(=O)NN3CCCCCC3)cc2)no1,"inconclusive: 0.794 µM [activator, full curve, poor fit]",–
COc1ccc(C2=NN(C(=O)c3cccs3)C(c3ccccc3O)C2)cc1 (centres undefined),"inconclusive: 1.78 µM [activator, partial curve]",–
COC(c1ccccc1Br)C(C)/C=C/CCO (centres undefined),"inconclusive: 0.316 µM [activator, full curve, poor fit]",–
N#CC(C#N)=C(Nc1ccc(F)cc1)SCc1cccc(F)c1,"inconclusive: 0.794 µM [activator, single point]",–
Cc1cccc(NC(=O)c2sc3nc(-c4ccc(F)cc4)cn3c2C)n1,"inconclusive: 1 µM [activator, partial curve]",–
CC(=O)c1sc2nsc(SCCN3CCCCC3)c2c1N,"inconclusive: 2 µM [activator, partial curve]",–
Cc1cc(NC(=O)c2ccccc2)nc2c1c(=O)oc1ccccc12,"inconclusive: 35.5 µM [activator, single point]",–
CC1=C(C)CC(C(=O)N2CCN(C/C=C/c3ccccc3)CC2)C(C(=O)O)C1 (centres undefined),"inconclusive: 3.16 µM [activator, single point]",–
O=C(N/C(=C/c1ccccc1)C(=O)N1CCOCC1)c1ccc([N+](=O)[O-])cc1,–,inactive: -27.3%
C/C(Cl)=C\Cn1c(Nc2cccc(C)c2)nc2c1c(=O)n(C)c(=O)n2C,"inconclusive: 12.6 µM [activator, single point]",–
C[C@@H](CN(C)C)CN1c2ccccc2Sc2ccccc21,"inconclusive: 3.98 µM [activator, partial curve]",–
Cc1nc2[nH]c(=O)c3c(n2n1)NC1=C(C(=O)CC(C)(C)C1)C3c1ccc(F)cc1 (centres undefined),"inconclusive: 35.5 µM [activator, single point]",–
COC(=O)C1=C(C)N(Cc2ccccc2)[C@]23O[C@](C(=O)OC)(C(=O)N2C1c1ccccc1)C(c1ccccc1)C3C(=O)c1ccccc1 (some centres undefined),"inconclusive: 0.794 µM [activator, full curve]",–
COc1ccc(-c2csc(NC(=O)/C(N=Nc3ccccc3)=C(\C)O)n2)cc1,"inconclusive: 0.282 µM [activator, partial curve]",–
Cc1ccc2c(c1)nnn2C1CCN(C(=O)C23CC4CC(CC(C4)C2)C3)CC1,"inconclusive: 1 µM [activator, single point]",–
CN(C)Cc1nc2c(c(=O)[nH]1)C1(CCCCC1)Cc1ccccc1-2,–,inactive: -30.4%
O=C(c1cccc(F)c1F)N1CCCC1,–,inactive: -2.65% [at 10 µM]
